± gives the uncertainty stated by the source. Many entries were measured with a wide error.
Experiment: self-splicing fitness, log relative to wild type (ln ratio); higher = more splicing; Tetrahymena group I intron in knt gene, E. coli kanamycin selection, DiMSum; sequences stand for … in CUCUCU…GGAGGGAAAAGUUAUCAGGCAUGCACCUGGUAGCUAGUCUUUAAACCAAUAGAUUGCAUCGGUUUAAAAGGCAAGACCGUCAAAUUGCGGGAAAGGGGUCAACAGCCGUUCAGUACCAAGUCUCAGGGGAAACUUUGAGAUGGCCUUGCAAAGGGUAUGGUAAUAAGCUGACGGACAUGGUCCUAACCACGCAGCCAAGUCCUAAGUCAACAGAUCUUCUGUUGAUAUGGAUGCAGUUCACAGACUAAAUGUCGGUCGGGGAAGAUGUAUUCUUCUCAUAAGAUAUAGUCGGACCUCUCCUUAAUGGGAGCUAGCGGAUGAAGUGAUGCAACACUGGAGCCGCUGGGAACUAAUUUGUAUGCGAAAGUAUAUUGAUUAGUUUUGGAGUACUCGUGGUCG
Outline: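 The eight P1ex-region nucleotides of an intron in the knt kanamycin-resistance gene on pET-22b(+) were all randomised and the library put into E. coli BL21(DE3). Six replicate transformations were grown overnight at 37°C or 30°C on LB agar with or without 25 μg/mL kanamycin, together with 100 μg/mL carbenicillin, 50 μM IPTG and 0.2% rhamnose. Colonies were pooled and amplicon-sequenced on an Illumina HiSeq 2500. Fitness from DiMSum is the error-weighted combination of wild-type-normalised replicate fold changes, kanamycin over none.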

| Sequence | self-splicing fitness (ln) (30 °C) | self-splicing fitness (ln) (37 °C) |
| --- | --- | --- |
| GCGUAGCAAUAUUACGUUGC | -2.42 ± 0.59 | -1.77 ± 0.53 |
| GUUCAGCAAUAUUACGUCCG | – | -0.538 ± 0.68 |
| CGUAAGCAAUAUUACGCGUU | -3.69 ± 0.36 | -2.31 ± 0.32 |
| GCCCAGCAAUAUUACGUAUC | -0.98 ± 0.08 | -1.18 ± 0.081 |
| GUCCAGCAAUAUUACGCCCG | -2.09 ± 0.54 | -0.749 ± 0.62 |
| AGCUAGCAAUAUUACGAAUC | -4.7 ± 0.73 | – |
| GUUUAGCAAUAUUACGUGCC | – | -0.45 ± 0.63 |
| GCAGAGCAAUAUUACGCGCC | -3.39 ± 1 | -1.18 ± 0.92 |
| AACGAGCAAUAUUACGCAGC | – | -2.59 ± 0.76 |
| UUCGAGCAAUAUUACGUCCG | -3.05 ± 0.24 | -1.24 ± 0.28 |
| GGGAAGCAAUAUUACGGAUA | -2.17 ± 0.65 | – |
| CGAGAGCAAUAUUACGCUCG | -4.8 ± 0.51 | – |
| GCUGAGCAAUAUUACGCGAA | -3.53 ± 0.73 | – |
| GGGUAGCAAUAUUACGCAGG | -3.34 ± 0.54 | – |
| UCGGAGCAAUAUUACGAUAU | -3.77 ± 1 | -1.05 ± 0.75 |
| GGUUAGCAAUAUUACGGUGG | -4.12 ± 0.75 | – |
| UAUGAGCAAUAUUACGAGGA | -4.01 ± 0.73 | – |
| GGGAAGCAAUAUUACGGUCG | 0.00025 ± 0.1 | -0.403 ± 0.14 |
| CAUAAGCAAUAUUACGGCCC | – | -2.54 ± 0.66 |
| CGCCAGCAAUAUUACGUCUA | -4.02 ± 0.51 | – |
| GAGUAGCAAUAUUACGAGGU | – | -3.42 ± 0.73 |
| CUACAGCAAUAUUACGAACC | -3.4 ± 0.75 | -2.02 ± 0.67 |
| GUUUAGCAAUAUUACGGUUG | -3.13 ± 0.36 | -1.47 ± 0.28 |
| UGCUAGCAAUAUUACGCAGG | -2.73 ± 0.76 | -2.78 ± 0.75 |

| Sequence | self-splicing fitness (ln) (30 °C) | self-splicing fitness (ln) (37 °C) |
| --- | --- | --- |
| UAAUAGCAAUAUUACGCUAC | – | -3.63 ± 0.73 |
| AAAUAGCAAUAUUACGUUUC | – | -2.93 ± 0.75 |
| CUCGAGCAAUAUUACGGAUA | -2.79 ± 0.28 | -3.68 ± 0.46 |
| UUUUAGCAAUAUUACGAUUG | -1.52 ± 0.14 | -0.255 ± 0.16 |
| UUAUAGCAAUAUUACGGAGC | -4.45 ± 0.6 | – |
| CCACAGCAAUAUUACGGCCC | – | -2.05 ± 0.51 |
| UUUUAGCAAUAUUACGCCAC | -2.62 ± 0.87 | -0.504 ± 0.71 |
| GCGGAGCAAUAUUACGCUGA | – | -3 ± 0.6 |
| GAAGAGCAAUAUUACGAGCG | -3.17 ± 0.2 | -0.882 ± 0.17 |
| CGAGAGCAAUAUUACGGCUC | – | -2.76 ± 0.74 |
| UCGGAGCAAUAUUACGCCUA | -2.08 ± 0.8 | -0.974 ± 0.59 |
| UCAUAGCAAUAUUACGCUCU | -3.16 ± 0.65 | -2.25 ± 0.56 |
| UGAGAGCAAUAUUACGCUAC | – | -1.18 ± 0.67 |
| GAGUAGCAAUAUUACGCCAU | -2.49 ± 0.19 | -2.33 ± 0.31 |
| CUUAAGCAAUAUUACGCACC | – | -3.09 ± 1 |
| UGCGAGCAAUAUUACGCCCA | -2.09 ± 0.82 | 1.79 ± 1 |
| CAUAAGCAAUAUUACGCAGC | – | -2.17 ± 0.55 |
| GUAUAGCAAUAUUACGCAGU | -3.27 ± 0.76 | – |
| CAGGAGCAAUAUUACGGACA | -3.14 ± 0.76 | -3.43 ± 0.6 |
| GUUCAGCAAUAUUACGUCCU | -0.606 ± 0.14 | 0.279 ± 0.17 |
| UCUGAGCAAUAUUACGGACA | -2.91 ± 0.76 | -2.63 ± 0.76 |
| CGUAAGCAAUAUUACGUUCC | – | -1.98 ± 1.1 |
| AUAUAGCAAUAUUACGUGAC | -3 ± 0.53 | -2.85 ± 0.32 |
| CUAGAGCAAUAUUACGAGCA | -4.76 ± 0.51 | – |

| Sequence | self-splicing fitness (ln) (30 °C) | self-splicing fitness (ln) (37 °C) |
| --- | --- | --- |
| CAGGAGCAAUAUUACGAAAA | – | -2.57 ± 1.1 |
| CUACAGCAAUAUUACGAUGC | -3.88 ± 0.39 | -2.81 ± 0.2 |
| GUUCAGCAAUAUUACGCGGC | -2.79 ± 0.76 | – |
| AUGAAGCAAUAUUACGGUGA | -0.607 ± 0.069 | 0.195 ± 0.096 |
| CUCCAGCAAUAUUACGAGCA | -2.09 ± 0.54 | -3.64 ± 1 |
| ACCAAGCAAUAUUACGAAGA | -4.11 ± 0.24 | -1.56 ± 0.14 |
| UUAUAGCAAUAUUACGGGCC | -2.25 ± 1.1 | -1.82 ± 0.69 |
| UUGGAGCAAUAUUACGACGC | -2.42 ± 0.82 | – |
| AGAGAGCAAUAUUACGUGCU | -4.39 ± 0.51 | – |
| UGAGAGCAAUAUUACGGGAA | -1.81 ± 0.51 | -3.14 ± 0.74 |
| GGAGAGCAAUAUUACGCUAU | -4.11 ± 0.52 | -1.69 ± 0.82 |
| AGCGAGCAAUAUUACGACAC | – | -0.825 ± 0.61 |
| GUAGAGCAAUAUUACGAGAC | – | -2.66 ± 0.65 |
| UUUUAGCAAUAUUACGACUC | -2.56 ± 0.46 | -1.73 ± 0.82 |
| GGAUAGCAAUAUUACGCUAU | -2.42 ± 0.59 | – |
| UAGAAGCAAUAUUACGAGCC | -4.6 ± 0.59 | – |
| CUUAAGCAAUAUUACGAAUG | -0.541 ± 0.092 | -0.0976 ± 0.12 |
| UCGUAGCAAUAUUACGAAUC | – | -2.8 ± 1 |
| UUGUAGCAAUAUUACGAUCU | -3.81 ± 0.52 | – |
| CAGGAGCAAUAUUACGACCA | -3.78 ± 0.52 | -1.27 ± 0.31 |
| UUUCAGCAAUAUUACGUUUC | -3.8 ± 0.52 | – |
| CUGGAGCAAUAUUACGGAGG | -3.27 ± 1.1 | – |
| CAUUAGCAAUAUUACGUGCA | -2.31 ± 0.28 | -3.05 ± 0.74 |
| CCGCAGCAAUAUUACGUAGC | -4.93 ± 1 | – |

Looked up above.
UAGAAGCAAUAUUACGAGCC – self-splicing fitness (ln) (30 °C): -4.6 ± 0.59
AGCGAGCAAUAUUACGACAC – self-splicing fitness (ln) (37 °C): -0.825 ± 0.61

Continued.

| Sequence | self-splicing fitness (ln) (30 °C) | self-splicing fitness (ln) (37 °C) |
| --- | --- | --- |
| UCAGAGCAAUAUUACGUACG | -1.96 ± 0.24 | -1.96 ± 0.28 |
| GUACAGCAAUAUUACGUCGU | -1.34 ± 0.11 | 0.338 ± 0.11 |
| CCGUAGCAAUAUUACGAGAC | – | -1.69 ± 1.2 |
| UACGAGCAAUAUUACGAAAU | -4.91 ± 0.51 | – |
| ACUCAGCAAUAUUACGAAUC | -4.04 ± 0.52 | – |
| CACUAGCAAUAUUACGAAGC | -3.11 ± 0.74 | – |
| AGAGAGCAAUAUUACGAAUC | -3.68 ± 0.47 | -2.06 ± 0.37 |
| UCGGAGCAAUAUUACGGCAC | -3.89 ± 1 | – |
| AUUGAGCAAUAUUACGACAC | -2.36 ± 0.19 | -1.45 ± 0.22 |
| GAUCAGCAAUAUUACGGGGA | -1.61 ± 0.12 | -0.776 ± 0.12 |
| CCGAAGCAAUAUUACGGUGA | -5.03 ± 0.51 | – |
| CAUAAGCAAUAUUACGCAUA | -2.48 ± 0.18 | -1.71 ± 0.24 |
| GGGCAGCAAUAUUACGGCCU | -4.59 ± 0.72 | -2.22 ± 0.55 |
| CGCCAGCAAUAUUACGUAAU | -2.67 ± 0.12 | -1.71 ± 0.15 |
| CGUAAGCAAUAUUACGUUAG | -1.34 ± 0.072 | -0.964 ± 0.081 |
| UAGAAGCAAUAUUACGCGAU | – | -2.86 ± 1.1 |
| GUGGAGCAAUAUUACGUUGC | – | -2.08 ± 1.1 |
| UCGCAGCAAUAUUACGCAGC | -3.91 ± 0.73 | – |
| CAAUAGCAAUAUUACGAAAA | – | -2.79 ± 1.1 |
| GCAUAGCAAUAUUACGCCAC | – | -2.94 ± 0.53 |
| CCUGAGCAAUAUUACGCAUC | – | -3.53 ± 0.52 |
| CUUCAGCAAUAUUACGACGA | -3.55 ± 0.52 | – |
| GAAGAGCAAUAUUACGCCCG | – | -0.756 ± 0.61 |
| GGGAAGCAAUAUUACGUGCC | -3.42 ± 0.53 | – |

| Sequence | self-splicing fitness (ln) (30 °C) | self-splicing fitness (ln) (37 °C) |
| --- | --- | --- |
| GGCGAGCAAUAUUACGUAGC | -1.61 ± 0.54 | -2.05 ± 1.1 |
| CAUGAGCAAUAUUACGGGCC | -4.33 ± 1 | – |
| CAGUAGCAAUAUUACGCUGU | -2.72 ± 0.17 | -2.99 ± 0.28 |
| CUCGAGCAAUAUUACGCUCC | -3.16 ± 1 | -1.5 ± 0.88 |
| UGGGAGCAAUAUUACGGCGU | -2.71 ± 1.1 | – |
| UGUAAGCAAUAUUACGCUUC | -4.29 ± 0.72 | -3.41 ± 0.73 |
| GCGUAGCAAUAUUACGCACG | – | 0.864 ± 1.2 |
| CAGAAGCAAUAUUACGCAAC | -4.44 ± 0.58 | – |
| ACCGAGCAAUAUUACGCCAC | – | -0.987 ± 0.57 |
| CUAUAGCAAUAUUACGUAUU | – | -3.25 ± 0.52 |
| ACAGAGCAAUAUUACGCCCA | -1.33 ± 0.52 | – |
| UUAUAGCAAUAUUACGUAGC | – | -2.19 ± 0.78 |
| AUGUAGCAAUAUUACGCAAU | -1.49 ± 0.13 | -1.01 ± 0.23 |
| CCAUAGCAAUAUUACGGCCU | – | -3.02 ± 0.53 |
| CGUGAGCAAUAUUACGCAAC | -2.77 ± 0.36 | -2.18 ± 0.33 |
| CUGGAGCAAUAUUACGAACU | – | -1.79 ± 1.2 |
| GCCGAGCAAUAUUACGCCCC | – | -0.356 ± 0.61 |
| GGUGAGCAAUAUUACGUACA | – | -0.0341 ± 0.92 |
| AUCGAGCAAUAUUACGGCCA | -1.35 ± 0.41 | -1.47 ± 0.37 |
| GGUGAGCAAUAUUACGCAAG | -5.68 ± 1 | – |
| CAUGAGCAAUAUUACGCCCC | -0.86 ± 0.91 | – |
| CGACAGCAAUAUUACGGAUU | -3.77 ± 0.17 | -1.73 ± 0.099 |

Quoted from the results shown (four entries):

| Sequence | self-splicing fitness (ln) (30 °C) | self-splicing fitness (ln) (37 °C) |
| --- | --- | --- |
| GUUUAGCAAUAUUACGGUUG | -3.13 ± 0.36 | -1.47 ± 0.28 |
| UGCUAGCAAUAUUACGCAGG | -2.73 ± 0.76 | -2.78 ± 0.75 |
| UAAUAGCAAUAUUACGCUAC | – | -3.63 ± 0.73 |
| AAAUAGCAAUAUUACGUUUC | – | -2.93 ± 0.75 |

Single records, from the list above. Order of values: self-splicing fitness (ln) (30 °C) | self-splicing fitness (ln) (37 °C)
CAGAAGCAAUAUUACGCAAC in the list: -4.44 ± 0.58 | –
CAUGAGCAAUAUUACGCCCC in the list: -0.86 ± 0.91 | –

Source: the supplement of paper PMC7877785
